From patent publication US20110195432A1, “METHODS FOR THE SELECTION OF THERAPEUTIC TREATMENTS FOR CANCER” (priority 2008, published 2011)
No constants are given. Whether binding was seen depends on the method and setting. Binding seen in cells or lysates may run through a third protein. Some binding calls cover weakened binding; strength is not graded here.

Protein sequences, listed by entry. Tags and fused reporters are not part of them.
UniProt P10275: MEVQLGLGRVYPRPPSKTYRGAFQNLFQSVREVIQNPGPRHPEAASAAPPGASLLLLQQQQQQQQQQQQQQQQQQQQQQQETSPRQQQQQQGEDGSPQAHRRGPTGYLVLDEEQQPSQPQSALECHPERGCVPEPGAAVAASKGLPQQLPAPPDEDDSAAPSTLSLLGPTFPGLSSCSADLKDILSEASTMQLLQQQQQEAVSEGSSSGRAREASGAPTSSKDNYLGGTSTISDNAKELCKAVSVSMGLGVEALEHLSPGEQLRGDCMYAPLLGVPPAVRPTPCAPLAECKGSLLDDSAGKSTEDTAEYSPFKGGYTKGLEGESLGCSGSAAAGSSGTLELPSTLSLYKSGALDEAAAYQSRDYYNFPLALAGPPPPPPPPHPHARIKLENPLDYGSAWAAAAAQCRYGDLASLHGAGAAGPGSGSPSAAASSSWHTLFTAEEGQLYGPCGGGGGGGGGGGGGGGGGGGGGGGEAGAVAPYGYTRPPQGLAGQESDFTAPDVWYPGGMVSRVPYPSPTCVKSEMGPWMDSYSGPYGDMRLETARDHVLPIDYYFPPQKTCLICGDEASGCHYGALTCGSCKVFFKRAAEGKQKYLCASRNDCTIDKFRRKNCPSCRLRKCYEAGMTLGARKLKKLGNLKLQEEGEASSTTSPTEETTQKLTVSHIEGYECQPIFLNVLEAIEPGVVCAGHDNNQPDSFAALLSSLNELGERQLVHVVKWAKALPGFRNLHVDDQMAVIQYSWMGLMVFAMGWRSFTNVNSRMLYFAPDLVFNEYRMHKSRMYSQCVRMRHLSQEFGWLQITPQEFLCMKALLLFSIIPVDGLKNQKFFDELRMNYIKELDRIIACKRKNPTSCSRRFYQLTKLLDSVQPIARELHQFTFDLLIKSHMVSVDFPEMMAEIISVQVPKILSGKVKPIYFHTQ

Tests used:
Androgen receptor (AR) [1] = target: Androgen receptor (AR) (UniProt P10275); assay: co-immunoprecipitation and Western blot, LNCaP cell lysates, vehicle versus sulforaphane
Androgen receptor (AR) [2] = target: Androgen receptor (AR) (UniProt P10275); assay: co-immunoprecipitation with antibodies to HSP90, AR, acetylated lysine and IgG, Western blot for AR (FIG. 1C legend)
Androgen receptor (AR) [3] = target: Androgen receptor (AR) (UniProt P10275); assay: co-immunoprecipitation with anti-HSP90 antibody and Western blot for AR, LNCaP cell lysates, vehicle versus 20 uM sulforaphane for 4 h

Measured: binding

Heat shock protein 90 (HSP90) (from UniProt P07900 2-732)
binds: all assays above
